Measured values reported in the supplement of paper PMC10849652.
This is one part of the list.

Sequences of proteins named here, by UniProt entry; tags and fusion partners are left off. A change or cut given only in a name is not applied to a line headed by its entry.
UniProt Q9NRG0: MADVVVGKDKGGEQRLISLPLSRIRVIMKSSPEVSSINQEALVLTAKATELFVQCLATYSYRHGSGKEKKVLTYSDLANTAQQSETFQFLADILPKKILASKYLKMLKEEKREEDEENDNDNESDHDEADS
UniProt Q13057: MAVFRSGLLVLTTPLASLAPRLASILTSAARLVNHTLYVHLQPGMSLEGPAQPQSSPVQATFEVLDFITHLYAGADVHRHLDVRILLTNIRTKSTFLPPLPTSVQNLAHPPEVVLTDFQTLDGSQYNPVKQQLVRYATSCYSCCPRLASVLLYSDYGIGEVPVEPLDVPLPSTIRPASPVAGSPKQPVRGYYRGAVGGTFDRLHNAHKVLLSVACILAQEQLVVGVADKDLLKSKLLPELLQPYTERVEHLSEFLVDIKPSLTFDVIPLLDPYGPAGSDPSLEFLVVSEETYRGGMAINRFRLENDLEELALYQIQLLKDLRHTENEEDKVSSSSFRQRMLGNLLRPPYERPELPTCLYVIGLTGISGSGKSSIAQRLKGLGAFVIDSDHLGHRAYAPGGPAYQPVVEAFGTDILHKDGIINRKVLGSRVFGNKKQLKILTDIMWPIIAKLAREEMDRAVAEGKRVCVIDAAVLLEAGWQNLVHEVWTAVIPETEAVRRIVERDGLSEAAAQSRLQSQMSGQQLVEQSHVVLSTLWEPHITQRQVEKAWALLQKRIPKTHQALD
UniProt Q96FZ7: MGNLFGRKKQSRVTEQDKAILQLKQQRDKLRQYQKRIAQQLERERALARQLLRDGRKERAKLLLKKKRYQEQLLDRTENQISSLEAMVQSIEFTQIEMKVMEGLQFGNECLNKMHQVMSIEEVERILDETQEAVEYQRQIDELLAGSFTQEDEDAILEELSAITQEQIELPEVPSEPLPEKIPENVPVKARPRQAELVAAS
UniProt Q9BQ75: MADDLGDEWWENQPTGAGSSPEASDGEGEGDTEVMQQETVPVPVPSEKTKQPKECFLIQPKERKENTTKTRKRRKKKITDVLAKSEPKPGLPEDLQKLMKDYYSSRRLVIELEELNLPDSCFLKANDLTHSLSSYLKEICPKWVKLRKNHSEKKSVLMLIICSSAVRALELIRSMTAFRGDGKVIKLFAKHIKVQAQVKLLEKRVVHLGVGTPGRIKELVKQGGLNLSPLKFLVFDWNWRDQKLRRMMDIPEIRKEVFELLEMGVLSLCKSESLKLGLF
UniProt Q9Y2B0: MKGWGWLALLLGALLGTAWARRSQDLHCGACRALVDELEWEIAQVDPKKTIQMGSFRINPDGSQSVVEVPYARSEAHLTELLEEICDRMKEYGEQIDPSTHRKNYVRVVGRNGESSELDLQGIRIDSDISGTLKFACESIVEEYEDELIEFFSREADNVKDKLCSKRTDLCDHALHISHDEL
UniProt Q96DG6: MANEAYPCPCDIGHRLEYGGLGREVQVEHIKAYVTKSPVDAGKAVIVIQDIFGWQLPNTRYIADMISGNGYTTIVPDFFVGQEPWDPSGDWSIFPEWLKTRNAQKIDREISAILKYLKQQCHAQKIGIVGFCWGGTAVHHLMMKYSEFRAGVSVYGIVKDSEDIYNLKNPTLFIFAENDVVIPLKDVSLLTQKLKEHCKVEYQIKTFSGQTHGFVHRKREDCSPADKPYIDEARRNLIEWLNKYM
UniProt Q9Y2R0: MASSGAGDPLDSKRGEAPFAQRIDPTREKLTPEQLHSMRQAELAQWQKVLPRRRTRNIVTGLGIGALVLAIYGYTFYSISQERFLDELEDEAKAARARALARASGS
UniProt Q6FI81: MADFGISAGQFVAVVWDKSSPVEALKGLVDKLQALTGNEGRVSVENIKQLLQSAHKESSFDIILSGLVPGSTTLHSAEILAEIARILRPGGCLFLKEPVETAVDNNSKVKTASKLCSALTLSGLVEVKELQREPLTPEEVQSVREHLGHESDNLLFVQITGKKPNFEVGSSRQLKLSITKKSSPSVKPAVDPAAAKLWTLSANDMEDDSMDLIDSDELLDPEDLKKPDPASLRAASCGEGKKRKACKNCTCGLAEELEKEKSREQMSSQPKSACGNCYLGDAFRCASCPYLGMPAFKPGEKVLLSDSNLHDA
UniProt Q9H8M5: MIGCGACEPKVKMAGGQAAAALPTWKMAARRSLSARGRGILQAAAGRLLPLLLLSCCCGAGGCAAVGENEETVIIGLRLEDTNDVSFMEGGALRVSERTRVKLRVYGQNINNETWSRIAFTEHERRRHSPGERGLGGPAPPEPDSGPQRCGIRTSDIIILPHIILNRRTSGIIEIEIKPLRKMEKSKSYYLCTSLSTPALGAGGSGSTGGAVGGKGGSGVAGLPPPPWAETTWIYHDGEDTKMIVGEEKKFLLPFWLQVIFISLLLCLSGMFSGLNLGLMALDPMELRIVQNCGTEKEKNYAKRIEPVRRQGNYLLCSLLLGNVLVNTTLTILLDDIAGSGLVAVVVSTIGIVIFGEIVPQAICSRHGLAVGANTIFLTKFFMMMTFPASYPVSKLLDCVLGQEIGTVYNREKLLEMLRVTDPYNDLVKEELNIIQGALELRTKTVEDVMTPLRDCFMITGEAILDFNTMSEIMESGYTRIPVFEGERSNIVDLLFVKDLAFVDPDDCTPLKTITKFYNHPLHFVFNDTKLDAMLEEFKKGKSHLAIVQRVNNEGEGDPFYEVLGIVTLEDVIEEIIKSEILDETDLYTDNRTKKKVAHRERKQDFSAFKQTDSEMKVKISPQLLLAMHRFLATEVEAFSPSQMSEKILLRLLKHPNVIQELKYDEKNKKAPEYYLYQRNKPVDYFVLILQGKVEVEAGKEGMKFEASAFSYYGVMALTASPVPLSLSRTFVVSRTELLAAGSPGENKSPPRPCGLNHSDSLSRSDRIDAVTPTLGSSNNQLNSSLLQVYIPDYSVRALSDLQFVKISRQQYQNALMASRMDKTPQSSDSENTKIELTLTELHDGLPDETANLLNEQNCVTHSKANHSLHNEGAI
UniProt P51801: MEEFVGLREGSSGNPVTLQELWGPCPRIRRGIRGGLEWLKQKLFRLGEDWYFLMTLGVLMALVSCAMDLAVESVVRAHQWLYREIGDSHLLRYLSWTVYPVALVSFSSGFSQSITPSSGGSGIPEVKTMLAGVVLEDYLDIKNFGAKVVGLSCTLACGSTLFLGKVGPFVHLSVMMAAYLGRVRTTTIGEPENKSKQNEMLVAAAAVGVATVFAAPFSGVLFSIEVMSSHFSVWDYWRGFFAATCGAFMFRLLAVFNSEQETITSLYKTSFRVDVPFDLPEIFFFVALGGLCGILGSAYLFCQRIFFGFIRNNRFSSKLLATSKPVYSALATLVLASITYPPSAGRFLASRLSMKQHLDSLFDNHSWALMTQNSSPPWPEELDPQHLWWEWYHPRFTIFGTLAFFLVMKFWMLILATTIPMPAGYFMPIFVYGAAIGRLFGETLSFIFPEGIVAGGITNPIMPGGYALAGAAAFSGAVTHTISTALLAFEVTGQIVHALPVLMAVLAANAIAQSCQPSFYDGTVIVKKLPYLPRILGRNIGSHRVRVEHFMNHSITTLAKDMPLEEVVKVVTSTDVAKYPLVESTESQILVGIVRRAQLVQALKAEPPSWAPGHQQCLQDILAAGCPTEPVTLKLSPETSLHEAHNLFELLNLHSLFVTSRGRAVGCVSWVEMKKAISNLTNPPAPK
UniProt Q86X95: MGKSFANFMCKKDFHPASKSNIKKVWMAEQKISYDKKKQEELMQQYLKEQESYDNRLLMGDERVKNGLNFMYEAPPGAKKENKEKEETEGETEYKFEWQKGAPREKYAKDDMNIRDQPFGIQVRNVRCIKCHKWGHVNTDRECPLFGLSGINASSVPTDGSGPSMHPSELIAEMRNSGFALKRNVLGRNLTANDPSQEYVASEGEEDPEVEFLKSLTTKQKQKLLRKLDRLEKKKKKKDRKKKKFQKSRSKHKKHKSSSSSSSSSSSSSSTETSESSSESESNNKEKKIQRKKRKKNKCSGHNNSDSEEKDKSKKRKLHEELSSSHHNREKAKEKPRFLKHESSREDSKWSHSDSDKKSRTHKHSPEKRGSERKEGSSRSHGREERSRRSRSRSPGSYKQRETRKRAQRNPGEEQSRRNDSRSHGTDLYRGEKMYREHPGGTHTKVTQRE
UniProt Q86WW8: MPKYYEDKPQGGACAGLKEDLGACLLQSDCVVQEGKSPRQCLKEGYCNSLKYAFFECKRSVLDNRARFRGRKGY
UniProt P56277: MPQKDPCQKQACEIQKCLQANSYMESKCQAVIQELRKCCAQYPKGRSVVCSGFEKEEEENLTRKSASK
UniProt Q8NCH0: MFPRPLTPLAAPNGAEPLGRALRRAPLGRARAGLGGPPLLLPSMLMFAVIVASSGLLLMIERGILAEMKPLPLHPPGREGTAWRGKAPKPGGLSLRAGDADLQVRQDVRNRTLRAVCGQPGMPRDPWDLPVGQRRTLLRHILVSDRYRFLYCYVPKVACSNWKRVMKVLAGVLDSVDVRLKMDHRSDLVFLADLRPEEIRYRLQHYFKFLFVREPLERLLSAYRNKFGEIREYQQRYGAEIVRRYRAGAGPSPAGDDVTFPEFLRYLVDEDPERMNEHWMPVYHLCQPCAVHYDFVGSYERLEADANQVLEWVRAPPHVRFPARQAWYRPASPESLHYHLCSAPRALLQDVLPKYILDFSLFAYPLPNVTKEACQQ
UniProt Q9UFF9, whole entry, looked up: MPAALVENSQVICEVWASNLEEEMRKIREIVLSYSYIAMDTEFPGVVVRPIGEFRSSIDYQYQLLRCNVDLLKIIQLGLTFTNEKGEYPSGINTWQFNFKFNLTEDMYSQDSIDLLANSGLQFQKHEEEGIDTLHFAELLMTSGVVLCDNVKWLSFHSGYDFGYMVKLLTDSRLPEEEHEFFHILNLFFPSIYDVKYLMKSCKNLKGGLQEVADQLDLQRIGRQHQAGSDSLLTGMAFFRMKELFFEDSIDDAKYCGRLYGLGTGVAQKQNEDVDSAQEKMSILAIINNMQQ
UniProt Q14746: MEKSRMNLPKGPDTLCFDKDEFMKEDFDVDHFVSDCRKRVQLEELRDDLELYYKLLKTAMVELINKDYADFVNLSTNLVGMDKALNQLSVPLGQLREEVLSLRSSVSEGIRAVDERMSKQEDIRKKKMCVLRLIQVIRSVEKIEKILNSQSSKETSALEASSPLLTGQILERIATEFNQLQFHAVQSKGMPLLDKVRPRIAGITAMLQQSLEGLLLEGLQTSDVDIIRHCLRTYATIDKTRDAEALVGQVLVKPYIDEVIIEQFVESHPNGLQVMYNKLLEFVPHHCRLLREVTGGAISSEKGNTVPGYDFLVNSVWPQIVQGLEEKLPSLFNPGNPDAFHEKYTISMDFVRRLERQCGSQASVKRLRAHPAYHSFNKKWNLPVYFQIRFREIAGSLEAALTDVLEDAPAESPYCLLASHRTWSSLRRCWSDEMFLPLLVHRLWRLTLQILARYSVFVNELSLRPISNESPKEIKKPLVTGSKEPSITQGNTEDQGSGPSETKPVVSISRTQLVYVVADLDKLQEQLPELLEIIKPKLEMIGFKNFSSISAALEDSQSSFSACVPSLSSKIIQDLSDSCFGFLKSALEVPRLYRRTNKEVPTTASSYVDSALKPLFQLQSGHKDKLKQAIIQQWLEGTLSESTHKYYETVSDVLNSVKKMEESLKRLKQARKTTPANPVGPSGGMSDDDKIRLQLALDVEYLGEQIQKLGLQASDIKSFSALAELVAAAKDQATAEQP
UniProt Q9Y3Y2: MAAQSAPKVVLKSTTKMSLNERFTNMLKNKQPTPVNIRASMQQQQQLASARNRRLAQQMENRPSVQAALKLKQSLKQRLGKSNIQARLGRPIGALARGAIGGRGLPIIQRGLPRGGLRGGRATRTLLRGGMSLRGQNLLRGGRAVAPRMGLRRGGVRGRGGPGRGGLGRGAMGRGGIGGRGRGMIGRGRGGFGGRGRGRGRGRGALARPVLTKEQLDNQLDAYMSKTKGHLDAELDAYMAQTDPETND
UniProt Q9NRB3: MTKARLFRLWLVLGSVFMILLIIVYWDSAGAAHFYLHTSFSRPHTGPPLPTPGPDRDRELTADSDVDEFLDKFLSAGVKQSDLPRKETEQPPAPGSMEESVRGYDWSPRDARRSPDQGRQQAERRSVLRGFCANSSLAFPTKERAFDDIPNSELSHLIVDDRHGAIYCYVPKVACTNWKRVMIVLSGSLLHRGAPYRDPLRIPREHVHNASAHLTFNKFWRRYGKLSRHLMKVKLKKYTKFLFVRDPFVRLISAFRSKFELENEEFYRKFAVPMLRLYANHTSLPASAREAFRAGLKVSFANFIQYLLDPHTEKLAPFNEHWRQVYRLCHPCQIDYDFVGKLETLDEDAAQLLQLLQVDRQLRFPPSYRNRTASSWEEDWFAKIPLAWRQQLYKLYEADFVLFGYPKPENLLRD
UniProt Q9NWW5: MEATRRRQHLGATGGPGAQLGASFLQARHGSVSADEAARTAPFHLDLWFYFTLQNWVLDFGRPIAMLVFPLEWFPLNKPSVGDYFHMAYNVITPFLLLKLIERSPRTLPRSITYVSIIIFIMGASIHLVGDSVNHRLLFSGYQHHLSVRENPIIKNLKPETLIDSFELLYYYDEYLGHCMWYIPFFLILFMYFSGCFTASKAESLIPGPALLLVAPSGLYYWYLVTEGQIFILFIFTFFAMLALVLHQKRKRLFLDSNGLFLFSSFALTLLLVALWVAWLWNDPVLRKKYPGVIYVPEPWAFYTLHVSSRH

Tests used:
Experiment in all cases: log2 fold change, soluble protein after heating vs DMSO (PISA); higher = thermal stabilisation; K562 cells, 10 uM, 30 min; active = over 0.2 and 3.5 SD of the protein, either way, in both replicates (recomputed)
[1] = compound: COC1=CC=C(C=C1)CN2C=CC3=C2C=C(C=C3)C(=O)NO
Method in brief: (§1)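 For each measurement, 10 μM compound was applied for 30 min to K562 cells at 2×10^6 cells/mL. Aliquots were heated for 3 min across 48°C-58°C, pooled, and extracted in PBS with 0.5% NP-40 at 4°C; the supernatant after 21,000xg for 90 min was soluble protein. This was quantified by TMTpro 16plex LC-MS/MS with channel sums equalised, and thermal stability was reported relative to control samples from duplicates, on a log2 fold-change scale.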

filanesib = compound: CON(C)C(=O)N1N=C(c2cc(F)ccc2F)S[C@@]1(CCCN)c1ccccc1 [filanesib]
Method in brief: as §1

zotarolimus = compound: CO[C@H]1C[C@@H]2CC[C@@H](C)[C@@](O)(O2)C(=O)C(=O)N2CCCC[C@H]2C(=O)O[C@H]([C@H](C)C[C@@H]2CC[C@H](n3cnnn3)[C@H](OC)C2)CC(=O)[C@H](C)/C=C(\C)[C@@H](O)[C@@H](OC)C(=O)[C@H](C)C[C@H](C)/C=C/C=C/C=C/1C [zotarolimus]
Method in brief: as §1

idasanutlin = compound: COc1cc(C(=O)O)ccc1NC(=O)[C@@H]1N[C@@H](CC(C)(C)C)[C@](C#N)(c2ccc(Cl)cc2F)[C@H]1c1cccc(Cl)c1F [idasanutlin]
Method in brief: as §1

alisertib = compound: COc1cc(Nc2ncc3c(n2)-c2ccc(Cl)cc2C(c2c(F)cccc2OC)=NC3)ccc1C(=O)O [alisertib]
Method in brief: as §1

[2] = compound: COc1cc2nc(-c3cc(F)ccc3O)nc(N[C@@H]3CNC[C@H]3C(C)(C)O)c2cc1OC
Method in brief: as §1

gefitinib = compound: COc1cc2ncnc(Nc3ccc(F)c(Cl)c3)c2cc1OCCCN1CCOCC1 [gefitinib]
Method in brief: as §1

[3] = compound: COc1cccc2cc(-c3nc([C@H]4CC[C@H](C(=O)O)CC4)n4ncnc(N)c34)[nH]c12
Method in brief: as §1

lapatinib = compound: CS(=O)(=O)CCNCc1ccc(-c2ccc3ncnc(Nc4ccc(OCc5cccc(F)c5)c(Cl)c4)c3c2)o1 [lapatinib]
Method in brief: as §1

pictilisib = compound: CS(=O)(=O)N1CCN(Cc2cc3nc(-c4cccc5[nH]ncc45)nc(N4CCOCC4)c3s2)CC1 [pictilisib]
Method in brief: as §1

Measured: log2 fold change

CHRAC1 (UniProt Q9NRG0)
inactive: [1] 0.197 | filanesib -0.069 | zotarolimus -0.002 | idasanutlin -0.122 | alisertib -0.155 | [2] -0.037 | gefitinib 0.053 | [3] -0.024 | lapatinib 0.138 | pictilisib -0.11

COASY isoform 2 (UniProt Q13057)
inactive: [1] 0.034 | filanesib -0.061 | zotarolimus 0.024 | idasanutlin -0.071 | alisertib -0.038 | [2] 0.01 | gefitinib -0.038 | [3] 0.045 | lapatinib 0.043 | pictilisib 0.028

CHMP6 (UniProt Q96FZ7)
inactive: [1] 0.069 | filanesib 0.07 | zotarolimus 0.03 | idasanutlin -0.098 | alisertib -0.034 | [2] 0.067 | gefitinib 0.015 | [3] -0.016 | lapatinib -0.037 | pictilisib 0.133

CMSS1 (UniProt Q9BQ75)
inactive: [1] 0.001 | filanesib 0.177 | zotarolimus -0.03 | idasanutlin -0.127 | alisertib -0.146 | [2] 0.26 | gefitinib -0.169 | [3] 0.022 | lapatinib 0.023 | pictilisib -0.022

CNPY2 (UniProt Q9Y2B0)
inactive: [1] -0.085 | filanesib -0.013 | zotarolimus 0.025 | idasanutlin -0.036 | alisertib -0.045 | [2] 0.012 | gefitinib -0.009 | [3] 0.036 | lapatinib -0.018 | pictilisib 0.015

CMBL (UniProt Q96DG6)
inactive: [1] 0.02 | filanesib -0.035 | zotarolimus -0.015 | idasanutlin -0.06 | alisertib -0.049 | [2] 0.06 | gefitinib 0.02 | [3] 0.011 | lapatinib -0.055 | pictilisib 0.19

COA3 (UniProt Q9Y2R0)
inactive: [1] -0.113 | filanesib 0.013 | zotarolimus -0.04 | idasanutlin -0.041 | alisertib -0.081 | [2] -0.017 | gefitinib 0.004 | [3] 0.056 | lapatinib -0.055 | pictilisib -0.007

CHST10 (UniProt O43529)
inactive: [1] -0.11 | filanesib 0.021 | zotarolimus 0.088 | idasanutlin 0.062 | alisertib -0.014 | [2] -0.073 | gefitinib -0.071 | [3] 0.088 | lapatinib 0.058 | pictilisib 0.027

CIAPIN1 (UniProt Q6FI81)
inactive: [1] 0.037 | filanesib -0.043 | zotarolimus 0.051 | idasanutlin -0.064 | alisertib -0.019 | [2] 0.036 | gefitinib 0 | [3] -0.014 | lapatinib -0.026 | pictilisib 0.008

CNNM2 (UniProt Q9H8M5)
inactive: [1] -0.18 | filanesib 0.25 | zotarolimus -0.138 | alisertib -0.295 | [2] -0.026 | gefitinib 0.048 | [3] 0.163 | lapatinib 0.003 | pictilisib 0.182

CLCNKB (UniProt P51801)
inactive: [1] -0.146 | zotarolimus 0.136 | idasanutlin 0.157 | [2] -0.031 | lapatinib -0.012

CIR1 (UniProt Q86X95)
inactive: [1] -0.022 | filanesib 0.247 | zotarolimus -0.064 | idasanutlin 0.161 | alisertib -0.081 | [2] -0.019 | [3] -0.024 | lapatinib 0.078 | pictilisib -0.365

COA5 (UniProt Q86WW8)
inactive: [1] 0.094 | zotarolimus -0.126 | idasanutlin 0.221

COG3 (UniProt Q96JB2)
inactive: [1] 0.125 | zotarolimus 0.049 | alisertib 0.141 | [3] -0.15

CMC4 (UniProt P56277)
inactive: [1] -0.086 | zotarolimus -0.032 | idasanutlin -0.008 | [2] 0.018 | lapatinib -0.031 | pictilisib 0.051

CHST14 (UniProt Q8NCH0)
inactive: [1] -0.057 | zotarolimus 0 | idasanutlin 0.003 | alisertib -0.131 | [2] -0.048 | gefitinib -0.051 | [3] -0.022 | lapatinib 0.053 | pictilisib 0.059

CNOT8 (UniProt Q9UFF9)
inactive: [1] -0.058 | filanesib -0.031 | zotarolimus 0.074 | alisertib -0.242 | [2] -0.053 | gefitinib -0.016 | [3] 0.076 | lapatinib 0.142

CLINT1 (UniProt Q14677)
inactive: [1] -0.371 | zotarolimus 0.263 | idasanutlin -0.012 | alisertib -0.137 | gefitinib 0.077 | [3] -0.055

CLIC6 (UniProt Q96NY7)
inactive: [1] -0.043 | filanesib 0.148 | alisertib 0.066 | gefitinib 0.038 | [3] -0.007

COG2 (UniProt Q14746)
active: [3] 0.631
inactive: [1] -0.006 | filanesib 0.25 | zotarolimus -0.048 | idasanutlin -0.053 | alisertib 0.58 | gefitinib -0.187

CLASRP (UniProt Q8N2M8)
inactive: [1] 0.017 | filanesib 0.113 | zotarolimus -0.332 | idasanutlin -0.021 | gefitinib 0.267

CKAP2 (UniProt Q8WWK9)
inactive: [1] -0.024 | filanesib 0.757 | zotarolimus -0.052 | alisertib -0.106 | [2] -0.08 | gefitinib -0.058 | [3] -0.136 | lapatinib 0.185

CHTOP isoform 3 (UniProt Q9Y3Y2)
inactive: [1] -0.065 | filanesib 0.37 | zotarolimus 0.226 | alisertib -0.177 | [3] -0.294

CIAO2B (UniProt Q9Y3D0)
inactive: [1] -0.06 | filanesib 0.363 | zotarolimus -0.075 | alisertib -0.212 | [2] -0.135 | gefitinib 0.084 | [3] -0.154 | lapatinib -0.037

COG8 (UniProt Q96MW5)
inactive: [1] -0.025 | zotarolimus 0.045 | alisertib -0.136 | [3] 0

Six neighbouring entries out of the list so far, quoted:
CIAPIN1 (UniProt Q6FI81)
inactive: [1] 0.037 | filanesib -0.043 | zotarolimus 0.051 | idasanutlin -0.064 | alisertib -0.019 | [2] 0.036 | gefitinib 0 | [3] -0.014 | lapatinib -0.026 | pictilisib 0.008

CNNM2 (UniProt Q9H8M5)
inactive: [1] -0.18 | filanesib 0.25 | zotarolimus -0.138 | alisertib -0.295 | [2] -0.026 | gefitinib 0.048 | [3] 0.163 | lapatinib 0.003 | pictilisib 0.182

CLCNKB (UniProt P51801)
inactive: [1] -0.146 | zotarolimus 0.136 | idasanutlin 0.157 | [2] -0.031 | lapatinib -0.012

CIR1 (UniProt Q86X95)
inactive: [1] -0.022 | filanesib 0.247 | zotarolimus -0.064 | idasanutlin 0.161 | alisertib -0.081 | [2] -0.019 | [3] -0.024 | lapatinib 0.078 | pictilisib -0.365

COA5 (UniProt Q86WW8)
inactive: [1] 0.094 | zotarolimus -0.126 | idasanutlin 0.221

COG3 (UniProt Q96JB2)
inactive: [1] 0.125 | zotarolimus 0.049 | alisertib 0.141 | [3] -0.15

The listing continues:

CHURC1-FNTB (UniProt B4DL54)
inactive: [1] 0.004 | filanesib 0.071 | idasanutlin 0.006 | alisertib 0.057 | [2] -0.007 | [3] -0.02 | lapatinib -0.052 | pictilisib 0.055

COG1 (UniProt Q8WTW3)
inactive: [1] 0.179 | filanesib 0.101 | zotarolimus 0.107 | [2] 0.096 | lapatinib -0.053 | pictilisib -0.114

CLSTN1 (UniProt O94985)
inactive: [1] 0.029 | filanesib 0.168 | zotarolimus -0.053 | idasanutlin -0.109 | alisertib 0.625 | [2] 0.127 | [3] 0.027 | lapatinib -0.4

CHST12 (UniProt Q9NRB3)
inactive: [1] -0.003 | filanesib -0.062 | zotarolimus -0.008 | pictilisib -0.033

CLN6 (UniProt Q9NWW5)
inactive: filanesib -0.076 | zotarolimus -0.061 | idasanutlin -0.094 | alisertib -0.092 | [2] -0.042 | gefitinib 0.071 | [3] -0.039 | lapatinib 0.021

COL14A1 (UniProt Q05707)
inactive: [1] 0.133 | filanesib 0.068 | alisertib -0.234 | [2] -0.011 | gefitinib -0.044 | [3] 0.064 | lapatinib -0.06 | pictilisib -0.05

CKAP4 (UniProt Q07065)
inactive: filanesib -0.082 | zotarolimus -0.007 | idasanutlin 0.023 | alisertib 0.045 | [2] -0.005 | gefitinib 0.072 | [3] 0.038 | lapatinib 0.012

COL1A2 (UniProt P08123)
inactive: [1] -0.117 | filanesib 0.176 | zotarolimus -0.385 | idasanutlin 0.019 | gefitinib 0.297 | pictilisib -0.02
